According to publication PMC3000357 (PLoS Genetics, 2010):
These are yes or no findings as the source states them, for the method shown. In cells and extracts the contact can be indirect. These calls come from enrichment with a bait or labelling near it, and not all partners need be listed.

How the values were obtained:
[1] = target: T1, PcrA-SPA (Bacillus subtilis), O34580; experiment: affinity purification with mass spectrometry; Tap-tag: tandem affinity purification of C-terminal SPA fusions expressed from their original locus in B. subtilis; SDS-PAGE, Coomassie, bands identified by MALDI-TOF; conditions: remark: other sources report otherwise
T1 chain: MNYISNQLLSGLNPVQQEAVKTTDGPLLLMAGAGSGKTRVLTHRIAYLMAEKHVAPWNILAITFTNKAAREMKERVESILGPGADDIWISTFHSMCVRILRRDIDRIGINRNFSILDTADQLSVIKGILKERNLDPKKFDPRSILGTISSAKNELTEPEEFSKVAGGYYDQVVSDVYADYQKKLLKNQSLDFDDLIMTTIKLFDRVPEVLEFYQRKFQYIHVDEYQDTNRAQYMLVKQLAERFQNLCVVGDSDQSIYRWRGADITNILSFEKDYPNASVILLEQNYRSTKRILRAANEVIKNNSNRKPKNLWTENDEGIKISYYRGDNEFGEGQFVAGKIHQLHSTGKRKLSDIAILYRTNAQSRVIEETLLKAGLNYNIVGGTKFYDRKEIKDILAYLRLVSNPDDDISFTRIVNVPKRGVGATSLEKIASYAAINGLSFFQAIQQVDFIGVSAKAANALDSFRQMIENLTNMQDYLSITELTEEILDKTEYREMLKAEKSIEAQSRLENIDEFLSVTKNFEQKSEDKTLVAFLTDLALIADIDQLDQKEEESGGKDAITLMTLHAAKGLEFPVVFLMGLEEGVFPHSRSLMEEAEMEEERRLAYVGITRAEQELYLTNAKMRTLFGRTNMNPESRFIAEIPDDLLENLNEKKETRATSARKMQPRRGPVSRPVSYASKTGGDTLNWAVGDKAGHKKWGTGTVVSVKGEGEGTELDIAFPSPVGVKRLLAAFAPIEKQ

[2] = target: T2, RecS-SPA (Bacillus subtilis) (UniProt P50729); experiment: as above
T2 sequence: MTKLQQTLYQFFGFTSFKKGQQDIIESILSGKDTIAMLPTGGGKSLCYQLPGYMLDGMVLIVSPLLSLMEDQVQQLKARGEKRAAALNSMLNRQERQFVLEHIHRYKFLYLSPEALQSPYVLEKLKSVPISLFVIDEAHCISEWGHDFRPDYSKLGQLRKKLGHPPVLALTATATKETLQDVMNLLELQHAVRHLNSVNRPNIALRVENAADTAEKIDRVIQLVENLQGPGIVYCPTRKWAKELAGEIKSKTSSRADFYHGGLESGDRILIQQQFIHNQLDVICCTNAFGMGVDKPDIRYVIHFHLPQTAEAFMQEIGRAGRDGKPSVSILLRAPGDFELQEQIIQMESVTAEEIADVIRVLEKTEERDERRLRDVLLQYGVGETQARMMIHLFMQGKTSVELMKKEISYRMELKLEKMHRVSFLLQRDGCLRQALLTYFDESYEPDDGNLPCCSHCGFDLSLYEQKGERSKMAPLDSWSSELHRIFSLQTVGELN

[3] = target: hetero-tetrameric SSB/SSB-SPA complexes (Bacillus subtilis | Bacillus subtilis (endogenous in B. subtilis)); experiment: affinity purification with mass spectrometry; Tap-tag of SSB-SPA expressed from Pxyl at amyE beside wild-type SSB, cells grown with or without 0.2% D-xylose; control strain with wild-type ssb at amyE; SDS-PAGE, Coomassie, MALDI-TOF

B1: RecA, endogenous in B. subtilis, P16971 1-348 (protein)
chain: MSDRQAALDMALKQIEKQFGKGSIMKLGEKTDTRISTVPSGSLALDTALGIGGYPRGRIIEVYGPESSGKTTVALHAIAEVQQQGGQAAFIDAEHALDPVYAQKLGVNIEELLLSQPDTGEQALEIAEALVRSGAVDIVVVDSVAALVPKAEIEGDMGDSHVGLQARLMSQALRKLSGAINKSKTIAIFINQIREKVGVMFGNPETTPGGRALKFYSSVRLEVRRAEQLKQGNDVMGNKTKIKVVKNKVAPPFRTAEVDIMYGEGISKEGEIIDLGTELDIVQKSGSWYSYEEERLGQGRENAKQFLKENKDIMLMIQEQIREHYGLDNNGVVQQQAEETQEELEFEE
binding [1]: binds

B2: YpbB, produced in E. coli with RecS (natural protein, Bacillus subtilis, UniProt P50728 1-352, looked up)
chain: MSLNYFDIMVLDCLCKINGERSGSAVFHLFKGKRSSQTIQDAGLFQTAKYFGMAAKCSRSDISASLDKLEKHSYLAPMSESDTYKVTASGAAVLRHALSERPWPVHCHGAHYQQAAGVLWKRLSLLVQVLSHKQQGSRQYIPVTKDHKTLHWVKKYLSRHTDHIEMAKSLFAMLEAHLKKIENKAAQIFVYSLTSHHRIGYTSRQLADTLKEDEWYVYIMFWASVHYFIHSLPECEDALLKDLLSDVHLDNALTESTRKTWQMVKQGFPIQRIAEIRKLKTATIEDHIVEISLHEPAFMINDYVSAEDQLQIAEFAKRMRTNKIKQIRDGLEQRFSYFQIRLALTKQVQQYD
notes: YpbB, protein of unknown function of Bacillus subtilis, encoded immediately upstream of recS; Could not be prepared as a soluble protein alone; source: E. coli, purified only as a complex with RecS (procedure in Text S1)
binding [2]: binds

B3: XseA, endogenous in B. subtilis (protein, UniProt P54521 1-448)
chain: MGEAAYVTVSALTKYIKRKFDVDPHLENIWIKGELSNVKIHTRGHIYFTLKDENARMQSVMFARQSERLPFKPENGMKVLVRGGISVYEPSGNYQLYAKEMQPDGVGALYLAYEELKKKLAGEGLFDDRYKKQIPAFPATIGVVTSPTGAAVRDVITTLKRRYPLVKVIVLPALVQGENASRSIVTRIEEANEKEICDVLIVGRGGGSIEELWAFNEEIVARAIFASNIPIISAVGHETDFTISDFVADIRAATPTGAAEIAVPHTTDLIERTKTAEVRMTRAMQQHLGQKKERIQTLQSSYAFRFPKRLYAQKEQQFDLAYQQFQAQLTALLDRKSRQLERETYRLEALHPHEQLKQARTRYQEQTNQLRKNMNIQMKQLHSQFQTVLGKLNALSPLQVMERGYSLAYKEDKLIKSVSQIEEQDRLEIKLKDGVLTCEVLEKRGEEK
binding [3]: binds

B4: RarA, endogenous in B. subtilis (protein, UniProt O34528 1-421)
chain: MKPLAYRMRPTKIEDIIGQQHLVAEDKIIGRMVQAKHLSSMILYGPPGIGKTSIATAIAGSTSIAFRKLNAVINNKKDMEIVAQEAKMSGQVILILDEVHRLDKGKQDFLLPYLENGMIILIGATTANPYHAINPAIRSRTQIFELEPLTPELIKQALERALHDEHRGLGTYSVSIDDQAMEHFAHGCGGDVRSALNALELAVLSTKESADGEIHITLETAEECLQKKSFSHDKDGDAHYDVLSAFQKSIRGSDANAALHYLARLIEAGDLESIARRLLVIAYEDIGLASPQAGPRVLNAIQTAERVGFPEARIPLANAVIELCLSPKSNSAILAIDEALADIRAGKIGDVPKHLKDAHYKGAQELGRGIDYKYPHNYDNGWVEQQYLPDPLKNKQYYKPKQTGKFESALKQVYDKLMKRK
binding [3]: binds

B5: RecG, endogenous in B. subtilis (enzyme, UniProt O34942 1-682)
chain: MKQHQQTSIANIKGIGPETEKTLNELGIYDISDLLNYFPYRYDDYELRDLEEVKHDERVTVEGKVHSEPSLTYYGKKRNRLTFRLLVGHYLITAVCFNRPYLKKKLSLGSVVTVSGKWDKHRQTISVQELKNGPHQEDKSIEPVYSVKENVTVKMMRRFIQQALTQYADSLPDPLPEKLRKSYKLPDYYQALKAMHQPETREALKLARRRFVYEEFLLFQLKMQAFRKAEREQTQGIRQRFSNEELMRFIKSLPFPLTNAQSRVLREITADMSSPYRMNRLLQGDVGSGKTAVAAIALYAAILSGYQGALMVPTEILAEQHADSLVSLFEKWDVSVALLTSSVKGKRRKELLERLAAGEIDILVGTHALIQDEVEFKALSLVITDEQHRFGVEQRKKLRNKGQDPDVLFMTATPIPRTLAITVFGEMDVSVIDEMPAGRKRIETYWVKHDMLDRILAFVEKELKQGRQAYIICPLIEESDKLDVQNAIDVYNMLSDIFRGKWNVGLMHGKLHSDEKDQVMREFSANHCQILVSTTVVEVGVNVPNATIMVIYDADRFGLSQLHQLRGRVGRGEHQSFCILMADPKSETGKERMRIMSETNDGFELSEKDLELRGPGDFFGKKQSGMPEFKVADMVHDYRALETARQDAANLVASDAFWKEPEYAVLRDELLKSGVMDGEKLS
binding [3]: binds

B6: Ung, endogenous in B. subtilis (enzyme, UniProt P39615 1-225)
chain: MKQLLQDSWWNQLKEEFEKPYYQELREMLKREYAEQTIYPDSRDIFNALHYTSYDDVKVVILGQDPYHGPGQAQGLSFSVKPGVKQPPSLKNIFLELQQDIGCSIPNHGSLVSWAKQGVLLLNTVLTVRRGQANSHKGKGWERLTDRIIDVLSERERPVIFILWGRHAQMKKERIDTSKHFIIESTHPSPFSARNGFFGSRPFSRANAYLEKMGEAPIDWCIKDL
binding [3]: binds

B7: RecQ, endogenous in B. subtilis (enzyme, UniProt O34748 1-591)
chain: MLHRAQSLLAHYFGYEKFRSGQDEAIRLVTEARQNTACIMPTGGGKSICYQIPALMFEGTTIVISPLISLMKDQVDALEEAGINAAYINSTQSNQEIYERLNGLKEGAYKLFYITPERLTSIEFIRILQGIDVPLVAIDEAHCISQWGHDFRPSYRNIEILFRELHDKPVIMALTATATPEVHDDICKQLHIQKENTVYTGFSRENLTFKVVKGENKDRFIDEYVQNNRHEAGIVYTATRKEADRIYERLKRNQVRAGRYHGGLADDVRKEQQERFLNDELQVMVATSAFGMGIDKSNIRFVLHAQIPKDMESYYQEAGRAGRDGLASECVLLFSPQDIMVQRFLIEQSEHEEKQKQDLKKLRQMVDYCHTEDCLQRFILMYFGEKEPDACGQCGNCTDTRAAHDVTREAQMVLSCIIRMKERFGKTMVAQVLAGSKNKKVLENGFSDLSTYGILKHQSVGEISDFIEFLISDDFIRMSDGTFPTLFVSSKGRNVLKGELSVARKEALKAAAITENDELFERLRMVRKEIAAEQGVPPFVVFSDQTLKEMSGKQPVNDDELLSIKGVGEQKRAKYGRLFLQEIQAYARMTD
binding [3]: binds
